In the supplement of paper PMC10849652:
The other results are listed elsewhere or left out.

By UniProt entry, the sequences of proteins in these tests, tags left out. Where a name states a change or a piece, a line headed by the entry shows the natural chain unless it says otherwise.
UniProt Q5JV73, whole entry, looked up: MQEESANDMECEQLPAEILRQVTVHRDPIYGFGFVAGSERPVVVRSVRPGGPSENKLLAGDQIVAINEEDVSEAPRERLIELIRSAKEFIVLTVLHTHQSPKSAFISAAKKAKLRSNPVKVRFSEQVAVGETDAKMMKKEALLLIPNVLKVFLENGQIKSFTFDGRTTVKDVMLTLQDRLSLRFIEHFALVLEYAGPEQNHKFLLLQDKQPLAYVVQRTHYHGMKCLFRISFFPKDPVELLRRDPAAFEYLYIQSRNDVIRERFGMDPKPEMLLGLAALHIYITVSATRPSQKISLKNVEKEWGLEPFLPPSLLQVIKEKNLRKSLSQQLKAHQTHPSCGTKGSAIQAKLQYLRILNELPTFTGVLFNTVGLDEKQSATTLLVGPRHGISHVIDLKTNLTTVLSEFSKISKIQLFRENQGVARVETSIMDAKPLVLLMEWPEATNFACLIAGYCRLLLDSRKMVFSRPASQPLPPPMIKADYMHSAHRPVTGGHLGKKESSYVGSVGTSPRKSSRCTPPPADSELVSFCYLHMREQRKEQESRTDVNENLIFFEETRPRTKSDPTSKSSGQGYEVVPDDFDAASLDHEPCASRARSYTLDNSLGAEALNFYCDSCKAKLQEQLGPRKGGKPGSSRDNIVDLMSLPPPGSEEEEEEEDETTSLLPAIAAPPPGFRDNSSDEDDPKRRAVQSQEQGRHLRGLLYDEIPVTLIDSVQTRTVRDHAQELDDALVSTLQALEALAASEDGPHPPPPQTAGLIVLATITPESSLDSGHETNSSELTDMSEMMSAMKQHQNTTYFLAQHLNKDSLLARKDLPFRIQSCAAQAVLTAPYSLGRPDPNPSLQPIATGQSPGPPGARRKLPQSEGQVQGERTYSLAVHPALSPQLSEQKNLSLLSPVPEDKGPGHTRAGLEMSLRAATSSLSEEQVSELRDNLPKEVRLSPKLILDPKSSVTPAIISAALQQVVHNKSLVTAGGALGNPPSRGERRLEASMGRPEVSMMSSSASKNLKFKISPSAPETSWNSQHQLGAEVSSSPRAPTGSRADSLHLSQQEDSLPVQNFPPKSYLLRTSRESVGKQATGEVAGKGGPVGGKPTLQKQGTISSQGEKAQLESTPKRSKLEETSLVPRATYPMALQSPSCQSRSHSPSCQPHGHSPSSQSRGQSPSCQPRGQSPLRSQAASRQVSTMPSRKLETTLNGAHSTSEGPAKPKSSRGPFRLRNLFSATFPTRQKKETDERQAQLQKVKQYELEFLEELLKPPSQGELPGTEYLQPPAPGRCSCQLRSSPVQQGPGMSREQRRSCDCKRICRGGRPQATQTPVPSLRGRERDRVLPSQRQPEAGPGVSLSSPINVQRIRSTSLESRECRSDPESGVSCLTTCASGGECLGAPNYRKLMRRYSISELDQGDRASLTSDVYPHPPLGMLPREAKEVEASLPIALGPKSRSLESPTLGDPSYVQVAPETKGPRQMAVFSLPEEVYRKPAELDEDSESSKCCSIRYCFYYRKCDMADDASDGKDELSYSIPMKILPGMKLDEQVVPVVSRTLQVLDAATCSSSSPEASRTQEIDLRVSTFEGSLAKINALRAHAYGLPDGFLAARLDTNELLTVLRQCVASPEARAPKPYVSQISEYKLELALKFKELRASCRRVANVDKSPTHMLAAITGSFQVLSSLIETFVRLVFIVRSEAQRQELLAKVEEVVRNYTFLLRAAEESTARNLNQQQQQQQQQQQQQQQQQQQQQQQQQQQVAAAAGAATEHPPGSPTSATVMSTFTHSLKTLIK
UniProt A2VDF0: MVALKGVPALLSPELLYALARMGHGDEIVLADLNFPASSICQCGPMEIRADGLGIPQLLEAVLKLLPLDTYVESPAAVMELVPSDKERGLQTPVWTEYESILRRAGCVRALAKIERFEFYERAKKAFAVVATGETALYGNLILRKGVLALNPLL
UniProt O95749: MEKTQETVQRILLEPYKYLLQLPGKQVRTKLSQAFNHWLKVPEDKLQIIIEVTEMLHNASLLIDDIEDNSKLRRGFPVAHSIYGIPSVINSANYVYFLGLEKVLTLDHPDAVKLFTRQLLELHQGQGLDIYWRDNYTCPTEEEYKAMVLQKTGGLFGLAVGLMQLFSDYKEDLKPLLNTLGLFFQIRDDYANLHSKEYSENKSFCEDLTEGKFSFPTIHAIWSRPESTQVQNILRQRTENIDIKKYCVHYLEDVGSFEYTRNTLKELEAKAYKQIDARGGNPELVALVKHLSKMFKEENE
UniProt Q14697: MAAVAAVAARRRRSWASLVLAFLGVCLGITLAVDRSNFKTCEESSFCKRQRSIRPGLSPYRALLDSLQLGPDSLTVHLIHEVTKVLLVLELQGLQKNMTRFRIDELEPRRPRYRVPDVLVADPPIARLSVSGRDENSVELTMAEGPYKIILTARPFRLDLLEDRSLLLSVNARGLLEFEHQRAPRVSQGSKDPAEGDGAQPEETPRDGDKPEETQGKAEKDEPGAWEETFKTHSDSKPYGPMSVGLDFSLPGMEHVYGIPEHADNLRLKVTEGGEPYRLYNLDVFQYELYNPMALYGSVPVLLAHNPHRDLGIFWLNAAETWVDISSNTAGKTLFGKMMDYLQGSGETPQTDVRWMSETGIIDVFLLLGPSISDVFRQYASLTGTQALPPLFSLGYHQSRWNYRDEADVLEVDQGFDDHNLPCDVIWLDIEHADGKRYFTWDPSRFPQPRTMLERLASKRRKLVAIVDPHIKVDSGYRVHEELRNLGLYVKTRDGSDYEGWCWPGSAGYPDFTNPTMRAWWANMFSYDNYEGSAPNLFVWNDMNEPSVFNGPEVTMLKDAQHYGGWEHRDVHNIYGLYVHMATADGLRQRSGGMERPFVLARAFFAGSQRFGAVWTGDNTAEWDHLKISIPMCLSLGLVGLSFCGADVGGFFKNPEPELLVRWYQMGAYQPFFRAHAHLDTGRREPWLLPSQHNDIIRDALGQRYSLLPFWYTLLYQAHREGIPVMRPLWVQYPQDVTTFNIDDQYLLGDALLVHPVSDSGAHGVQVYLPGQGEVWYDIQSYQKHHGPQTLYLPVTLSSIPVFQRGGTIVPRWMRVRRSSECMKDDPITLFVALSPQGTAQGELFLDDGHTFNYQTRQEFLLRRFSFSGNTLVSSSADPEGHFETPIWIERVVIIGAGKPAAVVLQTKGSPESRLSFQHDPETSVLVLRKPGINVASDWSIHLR
UniProt P02794, whole entry, looked up: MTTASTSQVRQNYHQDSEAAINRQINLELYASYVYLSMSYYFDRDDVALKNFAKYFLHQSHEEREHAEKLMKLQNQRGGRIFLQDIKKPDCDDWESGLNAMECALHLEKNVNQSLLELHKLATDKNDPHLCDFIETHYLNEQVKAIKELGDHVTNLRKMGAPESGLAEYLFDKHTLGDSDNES
UniProt P51114, whole entry, looked up: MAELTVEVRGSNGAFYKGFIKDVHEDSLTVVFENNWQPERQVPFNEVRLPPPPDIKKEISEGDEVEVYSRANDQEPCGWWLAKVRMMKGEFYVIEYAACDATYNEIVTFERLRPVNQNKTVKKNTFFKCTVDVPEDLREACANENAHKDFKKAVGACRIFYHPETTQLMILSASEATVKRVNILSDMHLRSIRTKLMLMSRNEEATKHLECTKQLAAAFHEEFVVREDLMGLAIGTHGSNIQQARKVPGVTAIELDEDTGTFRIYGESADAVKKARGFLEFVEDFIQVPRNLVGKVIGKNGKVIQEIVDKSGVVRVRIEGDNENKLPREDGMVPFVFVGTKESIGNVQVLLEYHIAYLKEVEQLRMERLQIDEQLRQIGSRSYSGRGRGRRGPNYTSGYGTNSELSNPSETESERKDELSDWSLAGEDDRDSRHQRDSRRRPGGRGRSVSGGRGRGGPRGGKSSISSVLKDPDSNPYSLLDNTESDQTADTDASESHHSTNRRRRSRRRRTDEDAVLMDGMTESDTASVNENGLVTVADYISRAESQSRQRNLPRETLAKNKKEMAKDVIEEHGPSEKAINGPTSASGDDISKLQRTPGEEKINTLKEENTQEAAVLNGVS
UniProt O75600: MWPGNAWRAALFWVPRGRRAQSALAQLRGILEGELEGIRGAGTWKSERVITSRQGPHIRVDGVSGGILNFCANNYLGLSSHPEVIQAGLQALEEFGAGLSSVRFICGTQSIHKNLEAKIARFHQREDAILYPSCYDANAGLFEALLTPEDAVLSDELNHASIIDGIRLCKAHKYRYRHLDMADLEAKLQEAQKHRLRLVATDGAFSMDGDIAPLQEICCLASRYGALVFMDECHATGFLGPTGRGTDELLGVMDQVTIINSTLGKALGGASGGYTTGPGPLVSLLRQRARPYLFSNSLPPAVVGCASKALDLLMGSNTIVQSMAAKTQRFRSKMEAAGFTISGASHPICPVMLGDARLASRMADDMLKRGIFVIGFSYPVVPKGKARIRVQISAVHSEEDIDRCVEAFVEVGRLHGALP
UniProt Q13480: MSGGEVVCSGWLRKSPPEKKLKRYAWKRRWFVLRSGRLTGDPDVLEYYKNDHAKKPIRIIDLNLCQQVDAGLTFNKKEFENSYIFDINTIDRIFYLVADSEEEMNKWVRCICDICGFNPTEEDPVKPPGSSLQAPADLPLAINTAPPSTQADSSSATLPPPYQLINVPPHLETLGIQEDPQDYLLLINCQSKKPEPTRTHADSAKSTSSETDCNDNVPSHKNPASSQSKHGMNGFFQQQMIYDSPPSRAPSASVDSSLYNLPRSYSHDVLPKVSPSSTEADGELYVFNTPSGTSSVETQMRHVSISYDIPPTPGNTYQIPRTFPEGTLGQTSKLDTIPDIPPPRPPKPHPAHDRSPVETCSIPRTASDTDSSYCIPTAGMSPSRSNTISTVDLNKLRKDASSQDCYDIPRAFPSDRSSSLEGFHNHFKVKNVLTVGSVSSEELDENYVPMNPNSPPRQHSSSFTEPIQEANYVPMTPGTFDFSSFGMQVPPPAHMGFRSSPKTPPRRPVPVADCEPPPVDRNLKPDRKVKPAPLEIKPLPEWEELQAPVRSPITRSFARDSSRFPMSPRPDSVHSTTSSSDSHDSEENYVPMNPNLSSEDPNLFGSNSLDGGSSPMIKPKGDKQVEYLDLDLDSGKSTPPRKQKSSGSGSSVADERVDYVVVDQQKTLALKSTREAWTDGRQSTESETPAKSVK
UniProt Q14393: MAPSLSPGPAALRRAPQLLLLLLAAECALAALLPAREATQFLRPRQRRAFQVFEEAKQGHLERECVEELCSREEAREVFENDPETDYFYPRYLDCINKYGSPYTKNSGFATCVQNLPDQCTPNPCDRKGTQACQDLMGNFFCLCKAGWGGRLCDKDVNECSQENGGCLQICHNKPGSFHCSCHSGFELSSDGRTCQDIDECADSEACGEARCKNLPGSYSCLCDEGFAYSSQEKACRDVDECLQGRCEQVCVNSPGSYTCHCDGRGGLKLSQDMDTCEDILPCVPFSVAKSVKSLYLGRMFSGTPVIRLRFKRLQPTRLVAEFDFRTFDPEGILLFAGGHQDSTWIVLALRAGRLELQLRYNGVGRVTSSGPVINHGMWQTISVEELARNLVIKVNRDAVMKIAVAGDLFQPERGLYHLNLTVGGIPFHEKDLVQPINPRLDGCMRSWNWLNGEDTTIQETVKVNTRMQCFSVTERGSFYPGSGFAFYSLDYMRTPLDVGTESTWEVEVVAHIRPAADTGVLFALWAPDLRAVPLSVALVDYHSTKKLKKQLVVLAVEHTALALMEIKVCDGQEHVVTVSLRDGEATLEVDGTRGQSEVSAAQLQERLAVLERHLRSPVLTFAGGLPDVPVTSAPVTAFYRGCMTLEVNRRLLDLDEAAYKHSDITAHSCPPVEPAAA
UniProt Q16595: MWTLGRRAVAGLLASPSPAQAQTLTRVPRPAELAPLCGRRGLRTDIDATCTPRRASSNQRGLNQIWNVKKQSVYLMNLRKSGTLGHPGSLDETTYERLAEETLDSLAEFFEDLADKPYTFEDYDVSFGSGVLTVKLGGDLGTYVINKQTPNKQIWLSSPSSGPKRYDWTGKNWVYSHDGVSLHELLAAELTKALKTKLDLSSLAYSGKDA
UniProt Q8WTR4: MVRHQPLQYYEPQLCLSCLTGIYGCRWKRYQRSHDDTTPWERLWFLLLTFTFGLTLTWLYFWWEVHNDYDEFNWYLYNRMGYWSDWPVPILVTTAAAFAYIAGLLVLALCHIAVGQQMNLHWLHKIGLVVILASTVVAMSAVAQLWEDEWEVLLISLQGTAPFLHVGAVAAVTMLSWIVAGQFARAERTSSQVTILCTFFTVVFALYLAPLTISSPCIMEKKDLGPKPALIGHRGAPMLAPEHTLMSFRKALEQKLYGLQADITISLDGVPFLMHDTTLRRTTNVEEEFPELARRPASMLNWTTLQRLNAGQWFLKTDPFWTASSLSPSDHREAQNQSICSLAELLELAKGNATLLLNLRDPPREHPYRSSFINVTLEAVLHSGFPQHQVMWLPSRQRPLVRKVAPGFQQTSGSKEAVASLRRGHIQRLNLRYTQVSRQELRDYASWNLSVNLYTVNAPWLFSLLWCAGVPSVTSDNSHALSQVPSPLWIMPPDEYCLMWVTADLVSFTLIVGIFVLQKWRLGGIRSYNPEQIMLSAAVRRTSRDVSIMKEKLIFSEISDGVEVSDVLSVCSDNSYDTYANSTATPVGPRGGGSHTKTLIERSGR

Each target was assayed with c1cn2cc(-c3ccc4cn[nH]c4c3)nc(Nc3ccc(N4CCOCC4)cc3)c2n1 [entospletinib] (assay: log2 fold change, soluble protein after heating vs DMSO (PISA); higher = thermal stabilisation; K562 cells, 10 uM, 30 min; active = over 0.2 and 3.5 SD of the protein, either way, in both replicates (recomputed)).
Method in brief: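 K562 cells at 2×10^6 cells/mL were treated for 30 min with 10 μM compound, and aliquots were heated for 3 min over 48°C-58°C before pooling. Extraction used PBS with 0.5% NP-40 at 4°C, and soluble protein was the supernatant after 21,000xg for 90 min, measured by TMTpro 16plex LC-MS/MS with channel sums equalised. Thermal stability values, relative to control samples and from duplicates, are log2 fold changes.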

log2 fold change, inactive:
GALK2 (UniProt Q01415) -0.044, GHITM (UniProt Q9H3K2) 0.033, FRMPD3 (UniProt Q5JV73) 0.025, GAMT (UniProt Q14353) -0.062, GCHFR (UniProt P30047) -0.137, FUOM (UniProt A2VDF0) 0.206, GGPS1 (UniProt O95749) -0.071, FUBP1 isoform 2 (UniProt Q96AE4) 0.011, FUNDC2 (UniProt Q9BWH2) 0.045, GGNBP2 (UniProt Q9H3C7) -0.007, GANAB isoform 2 (UniProt Q14697) -0.003, GALM (UniProt Q96C23) -0.044, GAGE2A (UniProt Q6NT46) 0, FTH1 (UniProt P02794) 0.045, GALNT7 (UniProt H0YAH3) -0.043, FXR1 (UniProt P51114) 0.199, GEMIN8 (UniProt Q9NWZ8) -0.067, FYTTD1 (UniProt Q96QD9) -0.069, GDAP2 (UniProt Q9NXN4) -0.394, GC isoform 3 (UniProt P02774) 0.127, GCAT isoform 2 (UniProt O75600) 0.072, GFPT1 (UniProt Q06210) 0.028, GAB1 isoform 2 (UniProt Q13480) 0.085, GAS6 isoform 1 (UniProt Q14393) 0.013, FUBP1 (UniProt Q96AE4) -0.044, FXN (UniProt Q16595) 0.066, GDPD5 (UniProt Q8WTR4) 0.006, FPGT (UniProt O14772) -0.022, GGA3 (UniProt Q9NZ52) -0.015, G3BP1 (UniProt Q13283) 0.163
